We go through 1 substance from paper PMC5765474.

By UniProt entry, the sequences of proteins in these tests, tags left out.
UniProt P51807: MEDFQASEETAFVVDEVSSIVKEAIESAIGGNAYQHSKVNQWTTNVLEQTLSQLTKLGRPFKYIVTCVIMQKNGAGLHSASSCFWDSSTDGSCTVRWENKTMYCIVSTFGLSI

No constants are given. Whether binding was seen depends on the method and setting. In cells and extracts the contact can be indirect. Some results given as binding are weak or reduced against the parent protein; the word gives no strength.

The assay has as its target MAP6d1 protein (rat). The experiment in a line: co-IP; MAP6d1 immunoprecipitated, Tctex1 detected (Fig. S2); cells and constructs not shown.

For the substance “Tctex1 as used in the MAP6d1 immunoprecipitation (Fig. S2) (from UniProt P51807 1-113)”, the binding result is given as “binds”.
